{"sequences": {"note": "Protein sequences, listed by entry. Tags and fused reporters are not part of them. Lines headed by an entry give the natural chain unless they say otherwise; changes in a name come on top.", "UniProt Q6R327, whole entry, looked up": "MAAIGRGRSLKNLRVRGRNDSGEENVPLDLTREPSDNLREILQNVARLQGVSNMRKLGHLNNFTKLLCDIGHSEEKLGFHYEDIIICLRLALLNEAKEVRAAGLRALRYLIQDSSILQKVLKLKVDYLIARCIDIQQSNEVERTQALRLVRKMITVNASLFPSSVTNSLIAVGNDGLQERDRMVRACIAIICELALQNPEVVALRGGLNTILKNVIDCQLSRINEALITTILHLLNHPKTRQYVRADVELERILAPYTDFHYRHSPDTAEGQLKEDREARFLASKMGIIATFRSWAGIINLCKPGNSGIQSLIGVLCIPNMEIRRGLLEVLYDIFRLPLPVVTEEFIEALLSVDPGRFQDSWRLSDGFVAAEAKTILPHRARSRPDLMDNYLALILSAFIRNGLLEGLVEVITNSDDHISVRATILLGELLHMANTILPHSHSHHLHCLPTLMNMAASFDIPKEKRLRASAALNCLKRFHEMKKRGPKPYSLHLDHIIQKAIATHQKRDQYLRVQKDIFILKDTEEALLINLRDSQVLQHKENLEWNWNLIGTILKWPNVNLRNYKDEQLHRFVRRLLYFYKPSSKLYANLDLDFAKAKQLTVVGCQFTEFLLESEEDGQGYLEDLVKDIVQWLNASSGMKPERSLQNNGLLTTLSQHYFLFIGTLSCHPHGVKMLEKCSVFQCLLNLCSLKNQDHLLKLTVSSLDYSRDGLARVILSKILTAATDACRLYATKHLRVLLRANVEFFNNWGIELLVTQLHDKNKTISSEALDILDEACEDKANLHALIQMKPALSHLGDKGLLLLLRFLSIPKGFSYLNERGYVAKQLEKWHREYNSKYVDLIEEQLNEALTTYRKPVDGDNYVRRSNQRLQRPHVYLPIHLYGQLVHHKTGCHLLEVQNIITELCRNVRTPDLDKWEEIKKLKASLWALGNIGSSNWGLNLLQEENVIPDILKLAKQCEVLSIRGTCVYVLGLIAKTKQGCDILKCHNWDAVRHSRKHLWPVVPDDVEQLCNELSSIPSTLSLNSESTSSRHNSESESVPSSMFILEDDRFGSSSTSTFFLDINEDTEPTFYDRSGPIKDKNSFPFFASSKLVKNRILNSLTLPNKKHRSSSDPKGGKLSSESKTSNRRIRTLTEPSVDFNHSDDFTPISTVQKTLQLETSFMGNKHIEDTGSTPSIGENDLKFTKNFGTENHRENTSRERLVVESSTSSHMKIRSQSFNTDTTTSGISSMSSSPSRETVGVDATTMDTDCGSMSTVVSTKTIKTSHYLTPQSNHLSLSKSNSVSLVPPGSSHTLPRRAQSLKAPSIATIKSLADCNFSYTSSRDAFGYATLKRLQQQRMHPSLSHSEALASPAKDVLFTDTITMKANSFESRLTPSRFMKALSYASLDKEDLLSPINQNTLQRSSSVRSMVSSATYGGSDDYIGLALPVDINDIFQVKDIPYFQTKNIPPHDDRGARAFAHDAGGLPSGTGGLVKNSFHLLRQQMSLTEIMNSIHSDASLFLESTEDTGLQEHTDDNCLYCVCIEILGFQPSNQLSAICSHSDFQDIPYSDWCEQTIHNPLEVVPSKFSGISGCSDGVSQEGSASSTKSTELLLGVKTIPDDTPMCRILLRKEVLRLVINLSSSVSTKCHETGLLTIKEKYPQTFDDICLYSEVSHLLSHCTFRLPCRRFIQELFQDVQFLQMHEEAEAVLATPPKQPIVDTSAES", "UniProt Q13129": "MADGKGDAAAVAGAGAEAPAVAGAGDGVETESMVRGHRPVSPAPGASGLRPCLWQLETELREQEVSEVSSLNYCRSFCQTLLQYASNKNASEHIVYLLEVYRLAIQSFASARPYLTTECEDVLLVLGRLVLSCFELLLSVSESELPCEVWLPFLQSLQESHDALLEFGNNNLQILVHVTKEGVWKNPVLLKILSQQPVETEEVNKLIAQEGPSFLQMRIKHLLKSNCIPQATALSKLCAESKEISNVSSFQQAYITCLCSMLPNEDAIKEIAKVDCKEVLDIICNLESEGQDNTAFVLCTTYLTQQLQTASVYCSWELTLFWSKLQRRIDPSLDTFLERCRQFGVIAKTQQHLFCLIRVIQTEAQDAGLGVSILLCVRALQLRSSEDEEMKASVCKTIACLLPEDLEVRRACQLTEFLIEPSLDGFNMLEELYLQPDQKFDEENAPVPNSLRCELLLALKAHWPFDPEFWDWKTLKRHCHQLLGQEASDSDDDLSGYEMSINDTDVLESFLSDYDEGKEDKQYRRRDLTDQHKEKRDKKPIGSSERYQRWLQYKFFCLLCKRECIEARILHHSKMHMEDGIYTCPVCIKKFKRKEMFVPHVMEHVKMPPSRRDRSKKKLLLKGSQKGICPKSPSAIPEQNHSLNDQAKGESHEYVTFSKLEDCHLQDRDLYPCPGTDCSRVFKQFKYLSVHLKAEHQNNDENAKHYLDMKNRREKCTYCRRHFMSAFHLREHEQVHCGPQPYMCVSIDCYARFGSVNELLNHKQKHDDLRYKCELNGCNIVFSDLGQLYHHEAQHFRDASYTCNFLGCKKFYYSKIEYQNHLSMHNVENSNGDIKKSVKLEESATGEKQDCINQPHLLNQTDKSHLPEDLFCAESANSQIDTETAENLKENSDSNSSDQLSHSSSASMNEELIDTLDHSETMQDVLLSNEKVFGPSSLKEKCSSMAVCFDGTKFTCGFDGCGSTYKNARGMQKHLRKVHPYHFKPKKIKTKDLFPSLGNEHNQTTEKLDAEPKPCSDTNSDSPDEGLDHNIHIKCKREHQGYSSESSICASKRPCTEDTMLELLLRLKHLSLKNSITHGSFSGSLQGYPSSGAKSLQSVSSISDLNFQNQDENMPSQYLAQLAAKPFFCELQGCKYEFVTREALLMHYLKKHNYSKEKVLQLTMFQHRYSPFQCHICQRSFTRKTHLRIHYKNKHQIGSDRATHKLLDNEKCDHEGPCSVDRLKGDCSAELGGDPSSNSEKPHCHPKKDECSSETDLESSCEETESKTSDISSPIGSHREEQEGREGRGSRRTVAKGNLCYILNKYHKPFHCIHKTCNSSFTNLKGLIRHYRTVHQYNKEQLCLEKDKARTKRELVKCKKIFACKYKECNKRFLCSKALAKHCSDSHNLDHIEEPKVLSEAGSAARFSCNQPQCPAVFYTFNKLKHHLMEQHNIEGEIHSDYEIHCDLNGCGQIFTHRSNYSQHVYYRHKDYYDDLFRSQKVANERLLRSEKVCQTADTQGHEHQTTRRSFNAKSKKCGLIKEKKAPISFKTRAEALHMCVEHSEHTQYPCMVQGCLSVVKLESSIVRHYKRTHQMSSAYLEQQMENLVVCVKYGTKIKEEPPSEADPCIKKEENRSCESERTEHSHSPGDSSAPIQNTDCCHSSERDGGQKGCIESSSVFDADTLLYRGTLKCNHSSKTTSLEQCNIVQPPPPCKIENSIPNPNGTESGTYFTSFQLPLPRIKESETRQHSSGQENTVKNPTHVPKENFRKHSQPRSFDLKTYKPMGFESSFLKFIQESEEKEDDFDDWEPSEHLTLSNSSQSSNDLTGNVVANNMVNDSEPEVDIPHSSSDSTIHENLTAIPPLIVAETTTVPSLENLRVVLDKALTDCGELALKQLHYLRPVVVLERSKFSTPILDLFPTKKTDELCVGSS", "UniProt O75792": "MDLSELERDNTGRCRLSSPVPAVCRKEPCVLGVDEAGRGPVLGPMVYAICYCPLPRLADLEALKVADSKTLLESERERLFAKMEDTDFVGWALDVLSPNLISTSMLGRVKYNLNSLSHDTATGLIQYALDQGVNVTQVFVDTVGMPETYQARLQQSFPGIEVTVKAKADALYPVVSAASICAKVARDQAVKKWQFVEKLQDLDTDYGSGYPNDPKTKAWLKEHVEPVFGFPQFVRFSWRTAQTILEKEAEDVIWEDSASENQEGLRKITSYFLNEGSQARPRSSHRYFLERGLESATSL", "UniProt Q9Y508": "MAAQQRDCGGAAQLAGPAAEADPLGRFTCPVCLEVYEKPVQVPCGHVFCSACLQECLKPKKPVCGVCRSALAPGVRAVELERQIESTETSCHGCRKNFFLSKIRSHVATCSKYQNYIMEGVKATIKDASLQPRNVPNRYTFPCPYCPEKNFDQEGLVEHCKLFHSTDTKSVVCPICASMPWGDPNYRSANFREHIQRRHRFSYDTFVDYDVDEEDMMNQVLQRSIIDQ", "UniProt P35251": "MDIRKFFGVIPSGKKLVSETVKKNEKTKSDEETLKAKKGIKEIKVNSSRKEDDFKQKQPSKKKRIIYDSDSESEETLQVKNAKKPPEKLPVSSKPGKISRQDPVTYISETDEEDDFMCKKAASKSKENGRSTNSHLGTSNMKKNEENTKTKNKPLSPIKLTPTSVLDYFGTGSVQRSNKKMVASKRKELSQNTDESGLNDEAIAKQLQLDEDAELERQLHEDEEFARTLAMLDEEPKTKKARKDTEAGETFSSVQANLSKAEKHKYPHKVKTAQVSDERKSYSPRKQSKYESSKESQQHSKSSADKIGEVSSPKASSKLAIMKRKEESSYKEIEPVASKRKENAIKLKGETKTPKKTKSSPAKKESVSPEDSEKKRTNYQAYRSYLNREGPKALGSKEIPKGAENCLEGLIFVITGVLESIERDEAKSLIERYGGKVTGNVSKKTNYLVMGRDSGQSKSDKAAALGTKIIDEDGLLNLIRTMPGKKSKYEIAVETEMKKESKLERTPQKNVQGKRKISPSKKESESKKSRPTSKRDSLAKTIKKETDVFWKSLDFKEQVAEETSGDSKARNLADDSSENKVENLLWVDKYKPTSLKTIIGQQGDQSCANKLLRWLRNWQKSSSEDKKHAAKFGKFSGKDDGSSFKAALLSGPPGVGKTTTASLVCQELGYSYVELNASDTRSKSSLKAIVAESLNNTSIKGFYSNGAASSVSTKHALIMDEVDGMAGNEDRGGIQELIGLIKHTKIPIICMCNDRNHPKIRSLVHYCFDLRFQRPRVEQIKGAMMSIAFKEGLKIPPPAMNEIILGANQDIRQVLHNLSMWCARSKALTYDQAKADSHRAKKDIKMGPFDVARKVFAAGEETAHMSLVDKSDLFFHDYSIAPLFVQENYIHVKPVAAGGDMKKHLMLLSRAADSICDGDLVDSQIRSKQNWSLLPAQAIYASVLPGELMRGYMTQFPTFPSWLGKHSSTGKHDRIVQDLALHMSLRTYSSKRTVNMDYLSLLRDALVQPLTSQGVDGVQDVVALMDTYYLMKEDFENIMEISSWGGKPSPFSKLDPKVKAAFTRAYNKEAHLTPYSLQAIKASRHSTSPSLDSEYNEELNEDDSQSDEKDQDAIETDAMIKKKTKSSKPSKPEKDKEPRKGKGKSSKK", "UniProt Q9BV68": "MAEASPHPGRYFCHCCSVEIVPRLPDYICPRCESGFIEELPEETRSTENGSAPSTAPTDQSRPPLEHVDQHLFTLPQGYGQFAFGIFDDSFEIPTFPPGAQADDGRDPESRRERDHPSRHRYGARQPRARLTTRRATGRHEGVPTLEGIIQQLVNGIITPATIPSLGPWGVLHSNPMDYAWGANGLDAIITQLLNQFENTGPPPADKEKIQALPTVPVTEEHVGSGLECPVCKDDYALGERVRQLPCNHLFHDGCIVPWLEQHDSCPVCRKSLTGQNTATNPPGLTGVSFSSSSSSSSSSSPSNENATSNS", "UniProt Q8NBN7": "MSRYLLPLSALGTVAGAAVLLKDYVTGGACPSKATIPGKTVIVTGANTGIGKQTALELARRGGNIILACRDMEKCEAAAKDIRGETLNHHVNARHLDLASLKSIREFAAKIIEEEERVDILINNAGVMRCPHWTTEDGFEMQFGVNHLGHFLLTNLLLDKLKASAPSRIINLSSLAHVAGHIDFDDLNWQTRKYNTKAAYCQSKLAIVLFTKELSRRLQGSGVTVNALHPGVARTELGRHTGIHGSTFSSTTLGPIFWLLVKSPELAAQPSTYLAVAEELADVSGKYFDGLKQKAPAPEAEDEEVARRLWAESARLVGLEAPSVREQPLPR", "UniProt P46063": "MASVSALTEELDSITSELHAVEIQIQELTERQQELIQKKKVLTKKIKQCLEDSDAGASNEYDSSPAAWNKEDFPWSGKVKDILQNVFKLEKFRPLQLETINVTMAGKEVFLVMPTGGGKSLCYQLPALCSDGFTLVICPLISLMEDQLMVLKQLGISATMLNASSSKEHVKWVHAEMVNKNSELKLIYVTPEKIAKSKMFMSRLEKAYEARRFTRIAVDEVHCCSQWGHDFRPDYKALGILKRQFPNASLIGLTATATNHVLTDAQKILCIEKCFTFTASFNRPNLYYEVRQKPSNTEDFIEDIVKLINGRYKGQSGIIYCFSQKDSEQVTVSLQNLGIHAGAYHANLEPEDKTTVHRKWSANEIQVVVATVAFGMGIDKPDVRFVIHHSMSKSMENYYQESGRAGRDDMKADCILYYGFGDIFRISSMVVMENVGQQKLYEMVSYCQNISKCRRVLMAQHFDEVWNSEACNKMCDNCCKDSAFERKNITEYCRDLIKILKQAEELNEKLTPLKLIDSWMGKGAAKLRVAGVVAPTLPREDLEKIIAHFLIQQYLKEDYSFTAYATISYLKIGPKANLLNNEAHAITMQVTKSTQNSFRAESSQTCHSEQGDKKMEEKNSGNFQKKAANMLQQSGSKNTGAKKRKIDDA"}, "source": "the supplement of paper PMC12067093", "about": "“Discovery and optimisation of a covalent ligand for TRIM25 and its application to targeted protein ubiquitination” (Chemical Science, 2025)", "compound": "CC1Cc2ccccc2N1C(=O)C1CCCN(C1)C(=O)CCl (mixture of isomers) [TRIM25 ligand 11 (diastereomer mixture)]", "assay": "probe-labelled cysteine peptide fold change vs DMSO (competition) (log2 fold change); higher = less target engagement (more negative = stronger competition)", "settings": "THP-1, incubation time: 4 h", "note": "This is one part of the list.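 Note: competitive chemoproteomic profiling in live THP-1 cells with an iodoacetamide desthiobiotin (IA-DTB) probe, comparing probe-labelled peptide intensities in compound-treated cells against DMSO-treated controls.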"}
{"target": "REPIN1_Q9BWE0_433_VHSGERPFACEECGR (UniProt Q9BWE0)", "values": [{"measurement": "probe-labelled cysteine peptide fold change", "setting": "10 µM", "result": -0.0235}, {"measurement": "probe-labelled cysteine peptide fold change", "setting": "50 µM", "result": 0.0489}]}
{"target": "RHOT1_Q8IXI2_322_HDLDRDCALSPDELK (UniProt Q8IXI2)", "values": [{"measurement": "probe-labelled cysteine peptide fold change", "setting": "10 µM", "result": 0.353}, {"measurement": "probe-labelled cysteine peptide fold change", "setting": "50 µM", "result": 0.271}]}
{"target": "RICTOR_Q6R327_959_QCEVLSIR (UniProt Q6R327)", "values": [{"measurement": "probe-labelled cysteine peptide fold change", "setting": "10 µM", "result": 0.0442}, {"measurement": "probe-labelled cysteine peptide fold change", "setting": "50 µM", "result": 0.0763}]}
{"target": "RFTN1_Q14699_494_AGDMGNCVSGQQQEGGVSEEMK (UniProt Q14699)", "values": [{"measurement": "probe-labelled cysteine peptide fold change", "setting": "10 µM", "result": -0.258}, {"measurement": "probe-labelled cysteine peptide fold change", "setting": "50 µM", "result": -0.227}]}
{"target": "RLF_Q13129_584+587_MHMEDGIYTCPVCIK (UniProt Q13129)", "values": [{"measurement": "probe-labelled cysteine peptide fold change", "setting": "10 µM", "result": 0.00429}, {"measurement": "probe-labelled cysteine peptide fold change", "setting": "50 µM", "result": -0.113}]}
{"target": "RIF1_Q5UIP0_1155_SSLSNNECGSLDK (UniProt Q5UIP0)", "values": [{"measurement": "probe-labelled cysteine peptide fold change", "setting": "10 µM", "result": -0.092}, {"measurement": "probe-labelled cysteine peptide fold change", "setting": "50 µM", "result": -0.266}]}
{"target": "RMND5A_Q9H871_328+336_CWYHSIFACPILR (UniProt Q9H871)", "values": [{"measurement": "probe-labelled cysteine peptide fold change", "setting": "10 µM", "result": -0.0879}, {"measurement": "probe-labelled cysteine peptide fold change", "setting": "50 µM", "result": -0.00521}]}
{"target": "RECQL4_O94761_1008_ALCQLQWDHEPR (UniProt O94761)", "values": [{"measurement": "probe-labelled cysteine peptide fold change", "setting": "10 µM", "result": -0.0223}, {"measurement": "probe-labelled cysteine peptide fold change", "setting": "50 µM", "result": 0.0441}]}
{"target": "RFC4_P35249_180_FCLICNYVSR (UniProt P35249)", "values": [{"measurement": "probe-labelled cysteine peptide fold change", "setting": "10 µM", "result": -0.16}, {"measurement": "probe-labelled cysteine peptide fold change", "setting": "50 µM", "result": -0.0464}]}
{"target": "RETSAT_Q6NUM9_547_LHPCVMASLR (UniProt Q6NUM9)", "values": [{"measurement": "probe-labelled cysteine peptide fold change", "setting": "10 µM", "result": -0.202}, {"measurement": "probe-labelled cysteine peptide fold change", "setting": "50 µM", "result": -0.152}]}
{"target": "RNASEH2A_O75792_24_LSSPVPAVCR (UniProt O75792)", "values": [{"measurement": "probe-labelled cysteine peptide fold change", "setting": "10 µM", "result": -0.0996}, {"measurement": "probe-labelled cysteine peptide fold change", "setting": "50 µM", "result": -0.0838}]}
{"target": "RNASEL_Q05823_576_DCLSDLLGHPFFWTWESR (UniProt Q05823)", "values": [{"measurement": "probe-labelled cysteine peptide fold change", "setting": "10 µM", "result": 0.115}, {"measurement": "probe-labelled cysteine peptide fold change", "setting": "50 µM", "result": 0.179}]}
{"target": "RNF114_Q9Y508_8_DCGGAAQLAGPAAEADPLGR (UniProt Q9Y508)", "values": [{"measurement": "probe-labelled cysteine peptide fold change", "setting": "10 µM", "result": 0.00249}, {"measurement": "probe-labelled cysteine peptide fold change", "setting": "50 µM", "result": -0.152}]}
{"target": "RLF_Q13129_1015_LDAEPKPCSDTNSDSPDEGLDHNIHIK (UniProt Q13129)", "values": [{"measurement": "probe-labelled cysteine peptide fold change", "setting": "10 µM", "result": 0.0698}, {"measurement": "probe-labelled cysteine peptide fold change", "setting": "50 µM", "result": -0.247}]}
{"target": "RFC1_P35251_822_QVLHNLSMWCAR (UniProt P35251)", "values": [{"measurement": "probe-labelled cysteine peptide fold change", "setting": "10 µM", "result": 0.0478}, {"measurement": "probe-labelled cysteine peptide fold change", "setting": "50 µM", "result": 0.259}]}
{"target": "RNF113A_O15541_285_HYFCESCALQHFR (UniProt O15541)", "values": [{"measurement": "probe-labelled cysteine peptide fold change", "setting": "10 µM", "result": 0.00474}, {"measurement": "probe-labelled cysteine peptide fold change", "setting": "50 µM", "result": -0.0166}]}
{"target": "RENBP_P51606_423_PAPAPSPAPTPACR (UniProt P51606)", "values": [{"measurement": "probe-labelled cysteine peptide fold change", "setting": "10 µM", "result": 0.0234}, {"measurement": "probe-labelled cysteine peptide fold change", "setting": "50 µM", "result": 0.0476}]}
{"target": "RNF114_Q9Y508_64_KPVCGVCR (UniProt Q9Y508)", "values": [{"measurement": "probe-labelled cysteine peptide fold change", "setting": "10 µM", "result": -0.057}, {"measurement": "probe-labelled cysteine peptide fold change", "setting": "50 µM", "result": -0.0367}]}
{"target": "RDH10_Q8IZV5_170_TMMVNCHAHFWTTK (UniProt Q8IZV5)", "values": [{"measurement": "probe-labelled cysteine peptide fold change", "setting": "10 µM", "result": -0.157}, {"measurement": "probe-labelled cysteine peptide fold change", "setting": "50 µM", "result": 0.0319}]}
{"target": "RIN1_Q13671_623_LPATHCFQHLLR (UniProt Q13671)", "values": [{"measurement": "probe-labelled cysteine peptide fold change", "setting": "10 µM", "result": -0.0806}, {"measurement": "probe-labelled cysteine peptide fold change", "setting": "50 µM", "result": -0.0262}]}
{"target": "RIOK3_O14730_400_QLYHECTLVHADLSEYNMLWHAGK (UniProt O14730)", "values": [{"measurement": "probe-labelled cysteine peptide fold change", "setting": "10 µM", "result": 0.0248}, {"measurement": "probe-labelled cysteine peptide fold change", "setting": "50 µM", "result": -0.027}]}
{"target": "RNF126_Q9BV68_13+16_YFCHCCSVEIVPR (UniProt Q9BV68)", "values": [{"measurement": "probe-labelled cysteine peptide fold change", "setting": "10 µM", "result": -0.0221}, {"measurement": "probe-labelled cysteine peptide fold change", "setting": "50 µM", "result": -0.0833}]}
{"target": "RDH13_Q8NBN7_30_DYVTGGACPSK (UniProt Q8NBN7)", "values": [{"measurement": "probe-labelled cysteine peptide fold change", "setting": "10 µM", "result": 0.0256}, {"measurement": "probe-labelled cysteine peptide fold change", "setting": "50 µM", "result": -0.029}]}
{"target": "RIN1_Q13671_623_RLPATHCFQHLLR (UniProt Q13671)", "values": [{"measurement": "probe-labelled cysteine peptide fold change", "setting": "10 µM", "result": -0.0596}, {"measurement": "probe-labelled cysteine peptide fold change", "setting": "50 µM", "result": -0.187}]}
{"target": "RECQL_P46063_49_QCLEDSDAGASNEYDSSPAAWNK (UniProt P46063)", "values": [{"measurement": "probe-labelled cysteine peptide fold change", "setting": "10 µM", "result": 0.11}, {"measurement": "probe-labelled cysteine peptide fold change", "setting": "50 µM", "result": 0.0687}]}
{"target": "RICTOR_Q6R327_1651_YPQTFDDICLYSEVSHLLSHCTFR (UniProt Q6R327)", "values": [{"measurement": "probe-labelled cysteine peptide fold change", "setting": "10 µM", "result": 0.201}, {"measurement": "probe-labelled cysteine peptide fold change", "setting": "50 µM", "result": -0.187}]}
{"target": "RHOT1_Q8IXI2_216_ICFNTPLAPQALEDVK (UniProt Q8IXI2)", "values": [{"measurement": "probe-labelled cysteine peptide fold change", "setting": "10 µM", "result": 0.44}, {"measurement": "probe-labelled cysteine peptide fold change", "setting": "50 µM", "result": 0.146}]}
{"target": "RHOG_P84095_18_TCLLICYTTNAFPK (UniProt P84095)", "values": [{"measurement": "probe-labelled cysteine peptide fold change", "setting": "10 µM", "result": -0.128}, {"measurement": "probe-labelled cysteine peptide fold change", "setting": "50 µM", "result": 0.138}]}
{"target": "RDH13_Q8NBN7_75_CEAAAK (UniProt Q8NBN7)", "values": [{"measurement": "probe-labelled cysteine peptide fold change", "setting": "10 µM", "result": -0.00151}, {"measurement": "probe-labelled cysteine peptide fold change", "setting": "50 µM", "result": 0.0619}]}
{"target": "RNASEH2A_O75792_50+52_GPVLGPMVYAICYCPLPR (UniProt O75792)", "values": [{"measurement": "probe-labelled cysteine peptide fold change", "setting": "10 µM", "result": -0.237}, {"measurement": "probe-labelled cysteine peptide fold change", "setting": "50 µM", "result": 0.101}]}
{"target": "RECQL_P46063_471_VLMAQHFDEVWNSEACNK (UniProt P46063)", "values": [{"measurement": "probe-labelled cysteine peptide fold change", "setting": "10 µM", "result": 0.0846}, {"measurement": "probe-labelled cysteine peptide fold change", "setting": "50 µM", "result": -0.0567}]}
{"target": "RLF_Q13129_227_SNCIPQATALSK (UniProt Q13129)", "values": [{"measurement": "probe-labelled cysteine peptide fold change", "setting": "10 µM", "result": -0.128}, {"measurement": "probe-labelled cysteine peptide fold change", "setting": "50 µM", "result": -0.167}]}
{"target": "RFT1_Q96AA3_70_ACLSGGTQR (UniProt Q96AA3)", "values": [{"measurement": "probe-labelled cysteine peptide fold change", "setting": "10 µM", "result": -0.0678}, {"measurement": "probe-labelled cysteine peptide fold change", "setting": "50 µM", "result": -0.15}]}
{"target": "RNF138_Q8WVD3_192_LLDHCNSNHLFQIVPVTCPICVSLPWGDPSQITR (UniProt Q8WVD3)", "values": [{"measurement": "probe-labelled cysteine peptide fold change", "setting": "10 µM", "result": -0.215}, {"measurement": "probe-labelled cysteine peptide fold change", "setting": "50 µM", "result": -0.339}]}
{"target": "RFC1_P35251_916_AADSICDGDLVDSQIR (UniProt P35251)", "values": [{"measurement": "probe-labelled cysteine peptide fold change", "setting": "10 µM", "result": 0.228}, {"measurement": "probe-labelled cysteine peptide fold change", "setting": "50 µM", "result": 0.146}]}
{"target": "RFC2_P35250_88_TTSILCLAR (UniProt P35250)", "values": [{"measurement": "probe-labelled cysteine peptide fold change", "setting": "10 µM", "result": -0.0728}, {"measurement": "probe-labelled cysteine peptide fold change", "setting": "50 µM", "result": 0.034}]}
{"target": "RIC8A_Q9NPQ8_120_CLCNLVLSSPVAQMLAAEAR (UniProt Q9NPQ8)", "values": [{"measurement": "probe-labelled cysteine peptide fold change", "setting": "10 µM", "result": -0.125}, {"measurement": "probe-labelled cysteine peptide fold change", "setting": "50 µM", "result": -0.0602}]}
{"target": "RFC1_P35251_607_TIIGQQGDQSCANK (UniProt P35251)", "values": [{"measurement": "probe-labelled cysteine peptide fold change", "setting": "10 µM", "result": -0.0377}, {"measurement": "probe-labelled cysteine peptide fold change", "setting": "50 µM", "result": -0.103}]}
{"target": "RNASET2_O00584_121_HGTCAAQVDALNSQKK (UniProt O00584)", "values": [{"measurement": "probe-labelled cysteine peptide fold change", "setting": "10 µM", "result": -0.141}, {"measurement": "probe-labelled cysteine peptide fold change", "setting": "50 µM", "result": -0.394}]}
